Key:
isolated rat uterus = tested on: isolated rat uterus
Text: A change of one unit of pA2 value represents an order of magnitude change in potency.
On isolated smooth muscles, agonist potency is given as percent of BK potency; antagonist potency is given as pA2, and is underlined. In blood pressure assays, the number is the dose of peptide in micrograms that causes 50% reduction in the effect of BK intraarterially administered as a bolus mixture in a 500 g male rat; Ag indicates unquantitated agonist activity; Ant indicates unquantitated antagonist activity.

Protein sequences, listed by entry. Tags and fused reporters are not part of them.
UniProt P30411, whole entry: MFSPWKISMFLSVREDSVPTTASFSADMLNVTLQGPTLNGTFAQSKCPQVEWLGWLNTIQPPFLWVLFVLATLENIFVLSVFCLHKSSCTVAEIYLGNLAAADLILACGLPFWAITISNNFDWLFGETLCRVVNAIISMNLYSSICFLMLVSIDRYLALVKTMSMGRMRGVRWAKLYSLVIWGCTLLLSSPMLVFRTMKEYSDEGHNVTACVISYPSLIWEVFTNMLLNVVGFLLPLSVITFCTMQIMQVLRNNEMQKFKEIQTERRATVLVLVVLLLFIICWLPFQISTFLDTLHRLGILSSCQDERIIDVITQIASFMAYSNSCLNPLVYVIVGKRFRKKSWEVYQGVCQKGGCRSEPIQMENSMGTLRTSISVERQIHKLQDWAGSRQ

B2 receptor = B2 receptor (Homo sapiens, UniProt P30411); test: cell-based

Structure (SMILES): N=C(N)NCCC[C@@H](N)C(=O)N[C@@H](CCCNC(=N)N)C(=O)N1CCC[C@H]1C(=O)N1C[C@H](O)C[C@H]1C(=O)NCC(=O)N[C@@H](Cc1cccs1)C(=O)N[C@@H](CO)C(=O)N[C@@H](C(=O)N1[C@H](C(=O)N[C@@H](CCCNC(=N)N)C(=O)O)C[C@@H]2CCCC[C@@H]21)C1Cc2ccccc2C1 [Compound 7, DArg-Arg-Pro-Hyp-Gly-Thi-Ser-DIglb-Oic-Arg]
- Uterus Activity, antagonist potency given as pA2 (isolated rat uterus): 7.8
- Kb (B2 receptor): 16.2 nM
